For test [1], the target named is Flag-tagged estrogen receptor alpha (Flag-ERα) (human) (UniProt P03372). The experiment in a line: affinity purification with mass spectrometry; anti-Flag immunoprecipitation (antibody cross-linked to beads) from extracts of Ishikawa cells expressing Flag-ERα, Flag-ERβ or Flag control; elution with Flag peptide, trypsin digest, MudPIT (LTQ-Orbitrap).
Test [2] has as its target Flag-tagged estrogen receptor beta (Flag-ERβ) (UniProt Q92731). The test is described as above.

Sequences of proteins named here, by UniProt entry; tags and fusion partners are left off.
UniProt P03372: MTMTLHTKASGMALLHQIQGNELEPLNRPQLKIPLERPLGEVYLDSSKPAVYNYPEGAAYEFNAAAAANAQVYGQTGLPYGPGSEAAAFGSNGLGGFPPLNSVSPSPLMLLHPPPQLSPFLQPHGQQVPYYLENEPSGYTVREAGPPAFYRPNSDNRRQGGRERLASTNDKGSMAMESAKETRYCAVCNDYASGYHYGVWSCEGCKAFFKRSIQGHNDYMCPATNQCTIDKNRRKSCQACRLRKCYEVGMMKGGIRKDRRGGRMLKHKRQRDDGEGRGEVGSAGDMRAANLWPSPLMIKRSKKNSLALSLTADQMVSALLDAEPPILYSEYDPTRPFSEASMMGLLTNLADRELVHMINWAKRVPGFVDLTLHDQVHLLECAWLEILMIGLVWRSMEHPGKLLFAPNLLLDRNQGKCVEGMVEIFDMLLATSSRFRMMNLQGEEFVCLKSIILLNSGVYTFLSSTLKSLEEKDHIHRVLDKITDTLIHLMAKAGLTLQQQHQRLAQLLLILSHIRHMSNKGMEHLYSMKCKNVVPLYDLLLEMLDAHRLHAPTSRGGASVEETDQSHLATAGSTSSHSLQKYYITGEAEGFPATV
UniProt Q92731: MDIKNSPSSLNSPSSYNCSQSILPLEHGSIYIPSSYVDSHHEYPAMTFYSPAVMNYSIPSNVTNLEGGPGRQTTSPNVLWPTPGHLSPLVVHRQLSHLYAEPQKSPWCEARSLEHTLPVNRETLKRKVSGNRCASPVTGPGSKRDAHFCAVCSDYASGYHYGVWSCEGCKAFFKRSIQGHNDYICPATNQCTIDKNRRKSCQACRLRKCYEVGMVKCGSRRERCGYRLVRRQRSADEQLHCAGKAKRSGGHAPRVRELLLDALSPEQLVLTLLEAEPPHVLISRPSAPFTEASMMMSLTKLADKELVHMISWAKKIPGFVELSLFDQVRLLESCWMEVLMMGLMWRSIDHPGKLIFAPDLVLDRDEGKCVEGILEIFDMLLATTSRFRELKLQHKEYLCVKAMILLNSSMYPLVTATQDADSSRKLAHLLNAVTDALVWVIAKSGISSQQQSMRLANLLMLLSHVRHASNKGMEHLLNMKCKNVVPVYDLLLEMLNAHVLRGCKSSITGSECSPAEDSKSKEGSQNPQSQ
UniProt Q15022: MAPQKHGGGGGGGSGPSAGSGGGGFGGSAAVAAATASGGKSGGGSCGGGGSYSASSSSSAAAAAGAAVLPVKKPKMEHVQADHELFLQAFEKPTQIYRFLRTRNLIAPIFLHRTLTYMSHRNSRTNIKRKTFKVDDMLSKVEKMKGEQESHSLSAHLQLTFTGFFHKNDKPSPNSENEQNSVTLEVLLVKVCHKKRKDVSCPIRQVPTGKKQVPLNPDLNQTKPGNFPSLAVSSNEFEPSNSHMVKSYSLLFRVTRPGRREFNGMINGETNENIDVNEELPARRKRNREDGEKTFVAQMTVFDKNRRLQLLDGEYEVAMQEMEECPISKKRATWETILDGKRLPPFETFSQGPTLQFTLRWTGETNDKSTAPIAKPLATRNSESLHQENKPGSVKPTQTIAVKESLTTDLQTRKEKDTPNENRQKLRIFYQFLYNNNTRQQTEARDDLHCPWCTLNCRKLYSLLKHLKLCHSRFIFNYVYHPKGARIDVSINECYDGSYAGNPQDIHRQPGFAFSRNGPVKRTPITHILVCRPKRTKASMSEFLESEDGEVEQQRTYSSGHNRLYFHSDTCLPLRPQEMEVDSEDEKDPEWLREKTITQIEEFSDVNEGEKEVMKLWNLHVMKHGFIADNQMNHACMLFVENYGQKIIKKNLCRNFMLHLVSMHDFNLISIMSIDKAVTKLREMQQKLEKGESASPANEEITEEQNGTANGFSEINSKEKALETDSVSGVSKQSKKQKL
UniProt Q13547: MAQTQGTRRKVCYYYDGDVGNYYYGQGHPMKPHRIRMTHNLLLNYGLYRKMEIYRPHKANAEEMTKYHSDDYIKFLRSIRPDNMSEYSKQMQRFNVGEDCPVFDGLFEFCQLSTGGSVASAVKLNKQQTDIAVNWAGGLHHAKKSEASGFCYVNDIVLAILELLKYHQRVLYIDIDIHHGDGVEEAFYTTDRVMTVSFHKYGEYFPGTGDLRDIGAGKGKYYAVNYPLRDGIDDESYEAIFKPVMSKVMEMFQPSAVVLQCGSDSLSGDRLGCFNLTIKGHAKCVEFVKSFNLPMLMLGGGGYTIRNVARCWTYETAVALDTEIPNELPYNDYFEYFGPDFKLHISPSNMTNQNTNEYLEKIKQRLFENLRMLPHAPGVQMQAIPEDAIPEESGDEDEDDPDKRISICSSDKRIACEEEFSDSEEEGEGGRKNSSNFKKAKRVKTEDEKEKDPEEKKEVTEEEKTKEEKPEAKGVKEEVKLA

Results are given in words; binding and its absence hold for the method and conditions named. Binding seen in cells or lysates may run through a third protein. These calls come from enrichment with a bait or labelling near it, and not all partners need be listed.

In the case of “suppressor of Zeste 12 Protein (SUZ12) (from UniProt Q15022 1-739)”, the binding result in test [1] and in test [2] was “binds” throughout.
For the substance “histone deacetylase 1 (HDAC1) (from UniProt Q13547 1-482) (enzyme)”, the binding result in test [2] is listed as “binds”.

(Values after PMC9059368.)
